Data reported in paper PMC12575923.
Results are given in words; binding and its absence hold for the method and conditions named. In cells and extracts the contact can be indirect. Some results given as binding are weak or reduced against the parent protein; the word gives no strength.

Sequences of proteins named here, by UniProt entry; tags and fusion partners are left off.
UniProt Q14289: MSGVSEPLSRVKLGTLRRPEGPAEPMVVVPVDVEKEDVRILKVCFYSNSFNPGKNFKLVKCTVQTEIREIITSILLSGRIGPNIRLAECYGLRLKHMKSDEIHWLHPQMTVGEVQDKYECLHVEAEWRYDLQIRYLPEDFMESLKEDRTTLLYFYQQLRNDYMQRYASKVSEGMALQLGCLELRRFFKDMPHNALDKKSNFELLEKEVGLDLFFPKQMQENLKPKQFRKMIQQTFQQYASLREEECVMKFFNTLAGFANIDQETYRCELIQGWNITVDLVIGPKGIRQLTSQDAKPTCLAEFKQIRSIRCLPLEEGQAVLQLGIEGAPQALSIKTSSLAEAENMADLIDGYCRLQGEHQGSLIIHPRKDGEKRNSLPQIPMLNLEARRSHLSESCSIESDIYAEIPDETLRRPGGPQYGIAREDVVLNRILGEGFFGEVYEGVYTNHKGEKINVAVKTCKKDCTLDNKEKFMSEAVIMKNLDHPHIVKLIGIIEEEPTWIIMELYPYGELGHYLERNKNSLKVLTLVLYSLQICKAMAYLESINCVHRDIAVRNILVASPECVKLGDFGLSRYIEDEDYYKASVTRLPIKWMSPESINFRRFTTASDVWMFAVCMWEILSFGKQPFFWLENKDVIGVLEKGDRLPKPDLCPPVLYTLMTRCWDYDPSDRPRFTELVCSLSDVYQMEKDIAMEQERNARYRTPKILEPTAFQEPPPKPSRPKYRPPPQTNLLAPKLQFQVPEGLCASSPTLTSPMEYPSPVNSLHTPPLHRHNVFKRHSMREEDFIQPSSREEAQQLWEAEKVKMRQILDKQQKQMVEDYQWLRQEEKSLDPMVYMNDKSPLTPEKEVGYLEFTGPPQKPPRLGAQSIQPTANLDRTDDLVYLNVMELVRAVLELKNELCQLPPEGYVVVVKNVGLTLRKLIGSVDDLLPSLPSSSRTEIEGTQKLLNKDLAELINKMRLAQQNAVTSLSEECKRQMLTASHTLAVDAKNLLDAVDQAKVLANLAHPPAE
UniProt P40763: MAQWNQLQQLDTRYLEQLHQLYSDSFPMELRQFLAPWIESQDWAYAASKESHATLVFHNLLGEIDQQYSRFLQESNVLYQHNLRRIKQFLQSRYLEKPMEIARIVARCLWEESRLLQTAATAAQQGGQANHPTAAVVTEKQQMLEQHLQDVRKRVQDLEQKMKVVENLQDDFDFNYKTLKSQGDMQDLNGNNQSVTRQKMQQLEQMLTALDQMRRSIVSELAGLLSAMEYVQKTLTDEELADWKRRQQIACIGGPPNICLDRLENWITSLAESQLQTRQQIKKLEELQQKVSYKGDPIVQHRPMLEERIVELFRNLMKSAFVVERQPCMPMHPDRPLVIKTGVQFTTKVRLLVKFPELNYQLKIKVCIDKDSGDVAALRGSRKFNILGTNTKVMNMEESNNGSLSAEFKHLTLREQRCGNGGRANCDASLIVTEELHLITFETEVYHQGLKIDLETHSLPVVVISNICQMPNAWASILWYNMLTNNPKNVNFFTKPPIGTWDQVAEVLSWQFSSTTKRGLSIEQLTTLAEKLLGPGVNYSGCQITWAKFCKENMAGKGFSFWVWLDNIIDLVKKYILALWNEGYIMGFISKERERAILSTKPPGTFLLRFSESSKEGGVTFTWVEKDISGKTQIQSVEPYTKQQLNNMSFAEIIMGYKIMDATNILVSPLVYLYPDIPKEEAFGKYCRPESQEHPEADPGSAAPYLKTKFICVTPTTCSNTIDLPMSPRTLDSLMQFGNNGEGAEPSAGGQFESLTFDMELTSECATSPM

Assays:
[1] = target: Protein tyrosine kinase 2 beta (PTK2B) (human (endogenous in HCT15 and HCT116)) (UniProt Q14289); test: co-IP; endogenous PTK2B and STAT3 in HCT15 and HCT116 cells; blots probed for PTK2B and STAT3; the precipitating antibody is not told
FLAG-tagged PTK2B = FLAG-tagged PTK2B (UniProt Q14289); test: co-IP; HCT116 cells transiently transfected with FLAG-tagged PTK2B; precipitated with anti-FLAG antibody; blots probed for PTK2B and STAT3

- binding [1]: binds
- binding (FLAG-tagged PTK2B): binds
Substance: STAT3 (from UniProt P40763 1-770)
